This is one part of the list.
Key:
Assay in all cases: glycan array binding signal (z-score within array); higher = stronger binding
Settings in all cases: glycan notation: IUPAC condensed, linker removed
[1] = molecular target: Gal(b1-4)GlcNAc(b1-3)Gal(b1-4)GlcNAc(b1-3)Gal(b1-4)GlcNAc(b1-3)Gal(b1-4)GlcNAc(b1-2)Man(a1-3)[Gal(b1-4)GlcNAc(b1-3)Gal(b1-4)GlcNAc(b1-3)Gal(b1-4)GlcNAc(b1-3)Gal(b1-4)GlcNAc(b1-2)Man(a1-6)]Man(b1-4)GlcNAc(b1-4)[Fuc(a1-6)]GlcNAc
Summary of the method: (§1)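 The Consortium for Functional Glycomics database supplied 3228 glycan arrays, of which those lacking an available protein sequence were dropped. The binding signal, a within-array Z-score, was averaged across arrays of the same protein sequence and across linkers. Negative scores can be read as non-binding.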

[2] = molecular target: Gal(b1-4)GlcNAc(b1-3)Gal(b1-4)GlcNAc(b1-3)Gal(b1-4)GlcNAc(b1-3)Gal(b1-4)GlcNAc(b1-2)[Gal(b1-4)GlcNAc(b1-3)Gal(b1-4)GlcNAc(b1-3)Gal(b1-4)GlcNAc(b1-3)Gal(b1-4)GlcNAc(b1-6)]Man(a1-6)[Gal(b1-4)GlcNAc(b1-3)Gal(b1-4)GlcNAc(b1-3)Gal(b1-4)GlcNAc(b1-3)Gal(b1-4)GlcNAc(b1-2)Man(a1-3)]Man(b1-4)GlcNAc(b1-4)[Fuc(a1-6)]GlcNAc
Summary of the method: as §1

[3] = molecular target: Gal(b1-4)GlcNAc(b1-3)Gal(b1-4)GlcNAc(b1-3)Gal(b1-4)GlcNAc(b1-3)Gal(b1-4)GlcNAc(b1-3)Gal(b1-4)GlcNAc(b1-2)Man(a1-3)[Gal(b1-4)GlcNAc(b1-3)Gal(b1-4)GlcNAc(b1-3)Gal(b1-4)GlcNAc(b1-3)Gal(b1-4)GlcNAc(b1-3)Gal(b1-4)GlcNAc(b1-2)Man(a1-6)]Man(b1-4)GlcNAc(b1-4)GlcNAc
Summary of the method: as §1

[4] = molecular target: Gal(b1-4)GlcNAc(b1-3)Gal(b1-4)GlcNAc(b1-3)Gal(b1-4)GlcNAc(b1-3)Gal(b1-4)GlcNAc(b1-3)Gal(b1-4)GlcNAc(b1-2)Man(a1-3)[Gal(b1-4)GlcNAc(b1-3)Gal(b1-4)GlcNAc(b1-3)Gal(b1-4)GlcNAc(b1-3)Gal(b1-4)GlcNAc(b1-3)Gal(b1-4)GlcNAc(b1-2)Man(a1-6)]Man(b1-4)GlcNAc(b1-4)[Fuc(a1-6)]GlcNAc
Summary of the method: as §1

[5] = molecular target: Gal(b1-4)GlcNAc(b1-3)Gal(b1-4)GlcNAc(b1-3)Gal(b1-4)GlcNAc(b1-3)Gal(b1-4)GlcNAc(b1-3)Gal(b1-4)GlcNAc(b1-2)[Gal(b1-4)GlcNAc(b1-3)Gal(b1-4)GlcNAc(b1-3)Gal(b1-4)GlcNAc(b1-3)Gal(b1-4)GlcNAc(b1-3)Gal(b1-4)GlcNAc(b1-6)]Man(a1-6)[Gal(b1-4)GlcNAc(b1-3)Gal(b1-4)GlcNAc(b1-3)Gal(b1-4)GlcNAc(b1-3)Gal(b1-4)GlcNAc(b1-3)Gal(b1-4)GlcNAc(b1-2)Man(a1-3)]Man(b1-4)GlcNAc(b1-4)[Fuc(a1-6)]GlcNAc
Summary of the method: as §1

[6] = molecular target: Gal(b1-4)GlcNAc(b1-3)Gal(b1-4)GlcNAc(b1-3)Gal(b1-4)GlcNAc(b1-3)Gal(b1-4)GlcNAc(b1-3)Gal(b1-4)GlcNAc(b1-3)Gal(b1-4)GlcNAc(b1-2)Man(a1-3)[Gal(b1-4)GlcNAc(b1-3)Gal(b1-4)GlcNAc(b1-3)Gal(b1-4)GlcNAc(b1-3)Gal(b1-4)GlcNAc(b1-3)Gal(b1-4)GlcNAc(b1-3)Gal(b1-4)GlcNAc(b1-2)Man(a1-6)]Man(b1-4)GlcNAc(b1-4)GlcNAc
Summary of the method: as §1

[7] = molecular target: Gal(b1-4)GlcNAc(b1-3)Gal(b1-4)GlcNAc(b1-3)GalNAc
Summary of the method: as §1

[8] = molecular target: Gal(b1-4)GlcNAc(b1-3)Gal(b1-4)GlcNAc(b1-3)[Gal(b1-4)GlcNAc(b1-3)Gal(b1-4)GlcNAc(b1-6)]GalNAc
Summary of the method: as §1

[9] = molecular target: Gal(b1-4)GlcNAc(b1-3)Gal(b1-4)GlcNAc(b1-6)[Gal(b1-3)]GalNAc
Summary of the method: as §1

[10] = molecular target: Gal(b1-4)GlcNAc(b1-3)Gal(b1-4)[Fuc(a1-3)]GlcNAc(b1-3)Gal(b1-4)[Fuc(a1-3)]GlcNAc
Summary of the method: as §1

[11] = molecular target: Gal(b1-4)GlcNAc(b1-3)GalNAc
Summary of the method: as §1

[12] = molecular target: Gal(b1-4)GlcNAc(b1-3)[Fuc(a1-3)GlcNAc(b1-6)]Gal(b1-4)Glc
Summary of the method: as §1

[13] = molecular target: Gal(b1-4)GlcNAc(b1-3)[Gal(b1-4)GlcNAc(b1-6)]Gal(b1-4)GlcNAc
Summary of the method: as §1

[14] = molecular target: Gal(b1-4)GlcNAc(b1-3)[GlcNAc(b1-6)]Gal(b1-4)GlcNAc
Summary of the method: as §1

[15] = molecular target: Gal(b1-4)GlcNAc(b1-6)Gal(b1-4)GlcNAc
Summary of the method: as §1

[16] = molecular target: Gal(b1-4)GlcNAc(b1-6)GalNAc
Summary of the method: as §1

[17] = molecular target: Gal(b1-4)GlcNAc(b1-6)[Gal(b1-3)]GalNAc
Summary of the method: as §1

[18] = molecular target: Gal(b1-4)GlcNAc(b1-6)[Gal(b1-4)GlcNAc(b1-3)]GalNAc
Summary of the method: as §1

Gal(b1-4)GlcNAc6P = molecular target: Gal(b1-4)GlcNAc6P
Summary of the method: as §1

Gal(b1-6)Gal = molecular target: Gal(b1-6)Gal
Summary of the method: as §1

Gal3S(b1-3)GalNAc = molecular target: Gal3S(b1-3)GalNAc
Summary of the method: as §1

Gal3S(b1-3)GlcNAc = molecular target: Gal3S(b1-3)GlcNAc
Summary of the method: as §1

[19] = molecular target: Gal3S(b1-3)[Fuc(a1-4)]GlcNAc
Summary of the method: as §1

Gal3S(b1-4)Glc = molecular target: Gal3S(b1-4)Glc
Summary of the method: as §1

Gal3S(b1-4)Glc6S = molecular target: Gal3S(b1-4)Glc6S
Summary of the method: as §1

Gal3S(b1-4)GlcNAc = molecular target: Gal3S(b1-4)GlcNAc
Summary of the method: as §1

[20] = molecular target: Gal3S(b1-4)[Fuc(a1-3)]Glc6S
Summary of the method: as §1

[21] = molecular target: Gal3S(b1-4)[Fuc(a1-3)]GlcNAc
Summary of the method: as §1

[22] = molecular target: Gal3S(b1-4)[Fuc(a1-3)]GlcNAc6S
Summary of the method: as §1

Gal3S4S(b1-4)GlcNAc = molecular target: Gal3S4S(b1-4)GlcNAc
Summary of the method: as §1

Gal3S6S(b1-4)GlcNAc = molecular target: Gal3S6S(b1-4)GlcNAc
Summary of the method: as §1

Gal3S6S(b1-4)GlcNAc6S = molecular target: Gal3S6S(b1-4)GlcNAc6S
Summary of the method: as §1

Gal4S(b1-4)GlcNAc = molecular target: Gal4S(b1-4)GlcNAc
Summary of the method: as §1

Gal4S6S(b1-4)GlcNAc = molecular target: Gal4S6S(b1-4)GlcNAc
Summary of the method: as §1

Gal6P(b1-4)GlcNAc = molecular target: Gal6P(b1-4)GlcNAc
Summary of the method: as §1

Gal6S(b1-3)GlcNAc = molecular target: Gal6S(b1-3)GlcNAc
Summary of the method: as §1

Gal6S(b1-3)GlcNAc6S = molecular target: Gal6S(b1-3)GlcNAc6S
Summary of the method: as §1

Gal6S(b1-4)Glc = molecular target: Gal6S(b1-4)Glc
Summary of the method: as §1

B1: PX14375A-pdi-503-28-503 (Parabacteroides distasonis) (protein)
chain: PLGSPEAGDISEERQAFLRLTAVYSVMKDFRYTWSMQCFGDVLSNDATYSGSSNDAQTFTLLENYQYQADHTEILNKYRYSYQCINKANLFIRDMEMADDALFSKYDKEQMIGEAKFIRAYTYFELVKTFGGVPCYTGVLDLDHERLGRASVEEIYSVIEQDLNDAVSVLPKKSEVANYESSYAGRITKGAAIAMQTRIYLYEKKYDEVKKAFEKFQNECGGEYSLVAPEDYTWQFSLDGEHCSSSILEVNMYNSSTQSSYNVNNGNRHVLMSMPRNMTIGFGCAQPTQALADAYDAEGDVIRKKTTLLSTEEAIEIETAAKGDVAPVTDDRTGWYNRKLYLAPGQREENRGNNQPTNLRLIRLAEVYLNYAEACYFSGDIANAQKYLNEVRSHVNLAPKNHTGSQLFEDIMNERHLEFGMEGFRFFDVVRVGWGEKVFNGTKKAEFGAKTPFSAGAEVLPIPQTEIDISDGLITN
Question: What does the source list for B1?
Answer: glycan array binding signal (z-score) [1]: -0.111; glycan array binding signal (z-score) [2]: 0.237; glycan array binding signal (z-score) [3]: 0.24; glycan array binding signal (z-score) [4]: 0.535; glycan array binding signal (z-score) [5]: 0.135; glycan array binding signal (z-score) [6]: -0.535; glycan array binding signal (z-score) [7]: -0.556; glycan array binding signal (z-score) [8]: 0.529; glycan array binding signal (z-score) [9]: -0.143; glycan array binding signal (z-score) [10]: -0.205; glycan array binding signal (z-score) [11]: -0.462; glycan array binding signal (z-score) [12]: -0.097; glycan array binding signal (z-score) [13]: 0.207; glycan array binding signal (z-score) [14]: -0.288; glycan array binding signal (z-score) [15]: 0.408; glycan array binding signal (z-score) [16]: -0.315; glycan array binding signal (z-score) [17]: 0.222; glycan array binding signal (z-score) [18]: 0.131; glycan array binding signal (z-score) (Gal(b1-4)GlcNAc6P): -0.091; glycan array binding signal (z-score) (Gal(b1-6)Gal): -0.531; glycan array binding signal (z-score) (Gal3S(b1-3)GalNAc): -1.02; glycan array binding signal (z-score) (Gal3S(b1-3)GlcNAc): -0.14; glycan array binding signal (z-score) [19]: 0.083; glycan array binding signal (z-score) (Gal3S(b1-4)Glc): -0.196; glycan array binding signal (z-score) (Gal3S(b1-4)Glc6S): -0.046; glycan array binding signal (z-score) (Gal3S(b1-4)GlcNAc): -0.111; glycan array binding signal (z-score) [20]: 1.05; glycan array binding signal (z-score) [21]: -0.085; glycan array binding signal (z-score) [22]: 0.239; glycan array binding signal (z-score) (Gal3S4S(b1-4)GlcNAc): -0.718; glycan array binding signal (z-score) (Gal3S6S(b1-4)GlcNAc): 0.764; glycan array binding signal (z-score) (Gal3S6S(b1-4)GlcNAc6S): 1.32; glycan array binding signal (z-score) (Gal4S(b1-4)GlcNAc): -0.866; glycan array binding signal (z-score) (Gal4S6S(b1-4)GlcNAc): -0.631; glycan array binding signal (z-score) (Gal6P(b1-4)GlcNAc): 0.04; glycan array binding signal (z-score) (Gal6S(b1-3)GlcNAc): -0.165; glycan array binding signal (z-score) (Gal6S(b1-3)GlcNAc6S): 0.176; glycan array binding signal (z-score) (Gal6S(b1-4)Glc): -0.106

Reference: the supplement of paper PMC8728848
